# Assay results: article PMC7417555, “Comparative structural analyses and nucleotide-binding characterization of the four KH domains of FUBP1”
# The exact form of at least one protein or probe is not confirmed. The comparison behind a weaker result is the experiment's own reference, which may not be listed here. Where a protein sequence is shown, tags need not be part of it.
# Tests used:
# [1] = molecular target: T1, FUBP1 KH2 (UniProt Q96AE4); test: EMSA; conditions: slight shift; native PAGE: 200 uM protein, 5x ssDNA, 25 mM HEPES pH 7.5, 50 mM NaCl, 0.5 mM TCEP, 4 C, 0.5x TBE (KH4 0.5x TAE); recombinant protein; protein details: His6 removed by TEV; single-stranded DNA
# T1 sequence (looked up, limits assumed): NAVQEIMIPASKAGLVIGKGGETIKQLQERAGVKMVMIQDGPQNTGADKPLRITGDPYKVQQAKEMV
# [2] = molecular target: T2, FUBP1 KH4 (UniProt Q96AE4); test: EMSA; conditions: slight shift; native PAGE: 200 uM protein, 5x ssDNA, 25 mM HEPES pH 7.5, 50 mM NaCl, 0.5 mM TCEP, 4 C, 0.5x TBE (KH4 0.5x TAE); recombinant protein; single-stranded DNA
# T2 sequence (looked up, limits assumed): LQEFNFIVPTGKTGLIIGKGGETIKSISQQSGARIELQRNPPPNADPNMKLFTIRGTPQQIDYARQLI
sequence,measurement,setting,value
"TTTGTGTTAA [FUSE fragment 8, 10-mer (native PAGE)]",binding result,[1],binds more weakly
same,binding result,[2],binds more weakly
